# Measurements as given in patent publication US20170137491A1.
# No constants are given. Whether binding was seen depends on the method and setting. Some binding calls cover weakened binding; strength is not graded here.
# Tests used:
# [1] = target: codon-optimised SBP-ΔLNGFR fusion protein, as expressed at the cell surface after signal peptide cleavage; experiment: flow cytometry on transfected or transduced 293T cells
# [2] = target: SBP-ΔLNGFR expressed from pHRSIN-HA-SBP-ΔLNGFR (pilot construct with N-terminal HA tag) on 293T cells; experiment: flow cytometry on transfected 293T cells
# [3] = target: codon-optimised SBP-ΔLNGFR fusion protein, as expressed at the cell surface after signal peptide cleavage; experiment: magnetic bead selection of 293T cells transfected with pSpCas9(BB)-P2A-SBP-ΔLNGFR
# [4] = target: SBP-ΔLNGFR expressed from pHRSIN-HA-SBP-ΔLNGFR (pilot construct with N-terminal HA tag) on 293T cells; experiment: magnetic bead selection of transfected 293T cells, release with 2 mM biotin
# [5] = target: codon-optimised SBP-ΔLNGFR fusion protein, as expressed at the cell surface after signal peptide cleavage; experiment: magnetic bead selection of transduced primary human CD4+ T cells
binding [1],binding [2],binding [3],binding [4],binding [5],Substance
binds,binds,,,,streptavidin-APC (eBioscience) (from UniProt P22629 37-163)
,,binds,binds,binds,streptavidin-conjugated magnetic beads (from UniProt P22629 37-163)
